Experiment: general procedure: Fmoc solid-phase peptide synthesis; Wang resin; DIC or TBTU with HOBt; Fmoc-Arg(Pbf)-OH via pentafluorophenol ester (DIC, HATU)
Settings: whole synthesis

Substance: D-Phe-Pro-Arg-Pro-Gly-Gly-Gly-Gly-Asn-Gly-Asp-Phe-Glu-Glu-Ile-Pro-Glu-Glu-Tyr-Leu
- crude purity (method not given) (run 1): 85%
- crude purity (method not given) (run 2): 87%

From patent US20100292436 (published 2010)
